Data on five molecules can be found in paper PMC3464894.

These are yes or no findings as the source states them, for the method shown. Binding seen in cells or lysates may run through a third protein. Here binding means that the protein was enriched with, or labelled near, the bait; the list need not be complete. A no says only that the protein was not detected with the bait.

To fix the notation:
B1: Peroxiredoxin-2 (enzyme, UniProt P32119 1-198)
chain: MASGNARIGKPAPDFKATAVVDGAFKEVKLSDYKGKYVVLFFYPLDFTFVCPTEIIAFSNRAEDFRKLGCEVLGVSVDSQFTHLAWINTPRKEGGLGPLNIPLLADVTRRLSEDYGVLKTDEGIAYRGLFIIDGKGVLRQITVNDLPVGRSVDEALRLVQAFQYTDEHGEVCPAGWKPGSDTIKPNVDDSKEYFSKHN
B2: Serine/threonine-protein phosphatase 6 regulatory subunit 3 (protein, UniProt Q5H9R7 1-873)
chain: MFWKFDLHSSSHIDTLLEREDVTLKELMDEEDVLQECKAQNRKLIEFLLKAECLEDLVSFIIEEPPQDMDEKIRYKYPNISCELLTSDVSQMNDRLGEDESLLMKLYSFLLNDSPLNPLLASFFSKVLSILISRKPEQIVDFLKKKHDFVDLIIKHIGTSAIMDLLLRLLTCIEPPQPRQDVLNWLNEEKIIQRLVEIVHPSQEEDRHSNASQSLCEIVRLSRDQMLQIQNSTEPDPLLATLEKQEIIEQLLSNIFHKEKNESAIVSAIQILLTLLETRRPTFEGHIEICPPGMSHSACSVNKSVLEAIRGRLGSFHELLLEPPKKSVMKTTWGVLDPPVGNTRLNVIRLISSLLQTNTSSINGDLMELNSIGVILNMFFKYTWNNFLHTQVEICIALILASPFENTENATITDQDSTGDNLLLKHLFQKCQLIERILEAWEMNEKKQAEGGRRHGYMGHLTRIANCIVHSTDKGPNSALVQQLIKDLPDEVRERWETFCTSSLGETNKRNTVDLVTTCHIHSSSDDEIDFKETGFSQDSSLQQAFSDYQMQQMTSNFIDQFGFNDEKFADQDDIGNVSFDRVSDINFTLNTNESGNIALFEACCKERIQQFDDGGSDEEDIWEEKHIAFTPESQRRSSSGSTDSEESTDSEEEDGAKQDLFEPSSANTEDKMEVDLSEPPNWSANFDVPMETTHGAPLDSVGSDVWSTEEPMPTKETGWASFSEFTSSLSTKDSLRSNSPVEMETSTEPMDPLTPSAAALAVQPEAAGSVAMEASSDGEEDAESTDKVTETVMNGGMKETLSLTVDAKTETAVFKSEEGKLSTSQDAACKDAEECPETAEAKCAAPRPPSSSPEQRTGQPSAPGDTSVNGPV
B3: Inorganic pyrophosphatase (enzyme, UniProt Q15181 1-289)
chain: MSGFSTEERAAPFSLEYRVFLKNEKGQYISPFHDIPIYADKDVFHMVVEVPRWSNAKMEIATKDPLNPIKQDVKKGKLRYVANLFPYKGYIWNYGAIPQTWEDPGHNDKHTGCCGDNDPIDVCEIGSKVCARGEIIGVKVLGILAMIDEGETDWKVIAINVDDPDAANYNDINDVKRLKPGYLEATVDWFRRYKVPDGKPENEFAFNAEFKDKDFAIDIIKSTHDHWKALVTKKTNGKGISCMNTTLSESPFKCDPDAARAIVDALPPPCESACTVPTDVDKWFHHQKN
B4: Serine/threonine-protein phosphatase 6 catalytic subunit (enzyme, UniProt O00743 1-305)
chain: MAPLDLDKYVEIARLCKYLPENDLKRLCDYVCDLLLEESNVQPVSTPVTVCGDIHGQFYDLCELFRTGGQVPDTNYIFMGDFVDRGYYSLETFTYLLALKAKWPDRITLLRGNHESRQITQVYGFYDECQTKYGNANAWRYCTKVFDMLTVAALIDEQILCVHGGLSPDIKTLDQIRTIERNQEIPHKGAFCDLVWSDPEDVDTWAISPRGAGWLFGAKVTNEFVHINNLKLICRAHQLVHEGYKFMFDEKLVTVWSAPNYCYRCGNIASIMVFKDVNTREPKLFRAVPDSERVIPPRTTTPYFL
B5: NEFA-interacting nuclear protein NIP30 (protein, UniProt Q9GZU8 1-254)
chain: MDGGDDGNLIIKKRFVSEAELDERRKRRQEEWEKVRKPEDPEECPEEVYDPRSLYERLQEQKDRKQQEYEEQFKFKNMVRGLDEDETNFLDEVSRQQELIEKQRREEELKELKEYRNNLKKVGISQENKKEVEKKLTVKPIETKNKFSQAKLLAGAVKHKSSESGNSVKRLKPDPEPDDKNQEPSSCKSLGNTSLSGPSIHCPSAAVCIGILPGLGAYSGSSDSESSSDSEGTINATGKIVSSIFRTNTFLEAP

This test deals with HTLV-2 p28 (S-p28-HA) (HTLV-2). Kind of test: affinity purification with mass spectrometry; S-tagged p30 or p28 expressed in HEK 293T; lysate (1x passive lysis buffer) rocked with S-beads overnight at 4°C; washed once with 1 M NaCl RIPA, three times with RIPA, once with PBS; beads to shotgun Capillary-LC/MS/MS; proteins of the mock control subtracted; duplicate experiments.
Take B1: the binding entry is “binds”. In the case of B2 it was “binds”. Under B3 stands “binds”; under B4, “binds”; under B5, “no binding”.
